These are yes or no findings as the source states them, for the method shown. Binding seen in cells or lysates may run through a third protein. Here binding means that the protein was enriched with, or labelled near, the bait; the list need not be complete. Tags and fused reporters may be left off the sequences shown. Blank lines part the entries; values can stand above or below the molecule they belong to.
Biological target: T1, α2M–ALFA–His (human (cDNA from HepG2)) (UniProt P01023)
T1 sequence: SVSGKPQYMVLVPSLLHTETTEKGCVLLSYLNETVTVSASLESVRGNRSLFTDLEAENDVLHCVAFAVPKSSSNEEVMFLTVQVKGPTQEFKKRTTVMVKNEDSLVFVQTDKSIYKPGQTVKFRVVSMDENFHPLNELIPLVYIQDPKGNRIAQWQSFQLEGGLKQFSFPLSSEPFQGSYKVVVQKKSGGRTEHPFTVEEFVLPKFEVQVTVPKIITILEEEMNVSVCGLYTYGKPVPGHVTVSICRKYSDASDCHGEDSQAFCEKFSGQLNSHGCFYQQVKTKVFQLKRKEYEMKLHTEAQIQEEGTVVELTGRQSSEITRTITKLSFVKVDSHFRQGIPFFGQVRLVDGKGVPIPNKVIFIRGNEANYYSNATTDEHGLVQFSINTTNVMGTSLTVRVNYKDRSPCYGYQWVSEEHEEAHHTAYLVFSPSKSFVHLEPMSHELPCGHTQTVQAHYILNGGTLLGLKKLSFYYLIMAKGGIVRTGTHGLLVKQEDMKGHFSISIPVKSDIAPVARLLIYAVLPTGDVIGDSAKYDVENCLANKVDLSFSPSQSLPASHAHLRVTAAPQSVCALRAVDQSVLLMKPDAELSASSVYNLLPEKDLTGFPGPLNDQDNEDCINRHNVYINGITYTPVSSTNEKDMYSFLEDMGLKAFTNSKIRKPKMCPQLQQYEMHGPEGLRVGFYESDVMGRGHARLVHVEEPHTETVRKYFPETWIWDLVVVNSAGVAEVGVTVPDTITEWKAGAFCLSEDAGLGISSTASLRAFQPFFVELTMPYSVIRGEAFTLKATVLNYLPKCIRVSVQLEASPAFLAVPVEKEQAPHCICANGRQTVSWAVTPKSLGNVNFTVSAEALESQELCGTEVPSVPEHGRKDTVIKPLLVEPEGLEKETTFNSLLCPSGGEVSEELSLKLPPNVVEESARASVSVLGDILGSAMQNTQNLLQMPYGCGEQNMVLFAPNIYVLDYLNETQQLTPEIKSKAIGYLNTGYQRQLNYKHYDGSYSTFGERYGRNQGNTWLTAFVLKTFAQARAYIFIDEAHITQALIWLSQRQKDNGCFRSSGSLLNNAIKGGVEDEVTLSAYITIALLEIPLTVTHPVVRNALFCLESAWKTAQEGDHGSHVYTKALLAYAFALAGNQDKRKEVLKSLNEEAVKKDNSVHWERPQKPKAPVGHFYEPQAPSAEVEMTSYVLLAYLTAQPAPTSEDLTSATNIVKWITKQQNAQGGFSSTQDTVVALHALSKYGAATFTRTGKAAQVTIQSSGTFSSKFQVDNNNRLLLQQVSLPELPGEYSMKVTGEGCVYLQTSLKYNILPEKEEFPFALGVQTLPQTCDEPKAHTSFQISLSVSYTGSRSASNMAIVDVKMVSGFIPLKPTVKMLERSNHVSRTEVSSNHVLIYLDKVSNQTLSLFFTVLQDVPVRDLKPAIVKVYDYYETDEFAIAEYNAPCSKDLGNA
Assay: affinity purification with mass spectrometry; purified α2M–ALFA (0.14 μM) mixed with mouse blood cell (RBC) lysate, 50 °C (heat stress) or 4 °C for 1 h; ALFA tag-nanobody sepharose 2 h at 4 °C, washed four times with PBS; ruby staining and mass spectrometry; only the target purified

Sequences of proteins named here, by UniProt entry; tags and fusion partners are left off.
UniProt Q8BJY1: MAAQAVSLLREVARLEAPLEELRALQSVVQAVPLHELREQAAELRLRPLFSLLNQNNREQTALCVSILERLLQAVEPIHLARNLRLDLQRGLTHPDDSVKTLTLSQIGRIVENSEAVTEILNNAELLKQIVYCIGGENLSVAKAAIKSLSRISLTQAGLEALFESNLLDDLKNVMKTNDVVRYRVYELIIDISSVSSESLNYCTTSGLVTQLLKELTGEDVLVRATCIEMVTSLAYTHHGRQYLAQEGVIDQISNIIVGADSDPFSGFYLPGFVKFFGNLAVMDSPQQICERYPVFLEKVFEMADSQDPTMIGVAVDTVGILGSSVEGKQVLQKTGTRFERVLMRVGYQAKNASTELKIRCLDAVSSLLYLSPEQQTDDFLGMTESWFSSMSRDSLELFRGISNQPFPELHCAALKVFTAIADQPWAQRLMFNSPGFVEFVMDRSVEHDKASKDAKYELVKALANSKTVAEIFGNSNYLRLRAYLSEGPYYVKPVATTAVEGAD

binding: binds
Molecule: 26S proteasome non-ATPase regulatory subunit 5 (PSMD5) of mouse blood cell lysate (from UniProt Q8BJY1 1-504)

binding: binds
Molecule: carbonic anhydrase 2 (CA2) of mouse blood cell lysate (from UniProt P00920 1-260)

binding: binds
B1: glutamate–cysteine ligase regulatory subunit (GCLM) of mouse blood cell lysate (protein, UniProt O09172 1-274)
chain: MGTDSRAAGALLARASTLHLQTGNLLNWGRLRKKCPSTHSEELRDCIQKTLNEWSSQISPDLVREFPDVLECTMSHAVEKINPDEREEMKVSAKLFIVGSNSSSSTRSAVDMACSVLGVAQLDSVIMASPPIEDGVNLSLEHLQPYWEELENLVQSKKIVAIGTSDLDKTQLEQLYQWAQVKPNSNQVNLASCCVMPPDLTAFAKQFDIQLLTHNDPKELLSEASFQEALQESIPDIEAQDWVPLWLLRYSVIVKSRGIIKSKGYILQAKRRGS

binding: binds
B2: carbonic anhydrase 1 (CA1) of mouse blood cell lysate (protein, UniProt P13634 1-261)
chain: MASADWGYGSENGPDQWSKLYPIANGNNQSPIDIKTSEANHDSSLKPLSISYNPATAKEIVNVGHSFHVIFDDSSNQSVLKGGPLADSYRLTQFHFHWGNSNDHGSEHTVDGTRYSGELHLVHWNSAKYSSASEAISKADGLAILGVLMKVGPANPSLQKVLDALNSVKTKGKRAPFTNFDPSSLLPSSLDYWTYFGSLTHPPLHESVTWVICKDSISLSPEQLAQLRGLLSSAEGEPAVPVLSNHRPPQPLKGRTVRASF

binding: binds
B3: S-formylglutathione hydrolase (ESD) of mouse blood cell lysate (protein, UniProt Q9R0P3 1-282)
chain: MALKQISSNRCFGGLQKVFEHSSVELKCKMRFAVYLPPQAESGKCPALYWLSGLTCTEQNFISKSGYQQAASEHGLVVIAPDTSPRGCNIKGEDDSWDFGTGAGFYVNATEDPWKANYRMYSYVTEELPQLINANFPVDPQRMSIFGHSMGGHGALICALKNPGKYRSVSAFAPICNPVLCSWGKKAFSGYLGPDESKWKAYDATCLVKAYSGSQIDILIDQGKDDEFLSNGQLLPDNFIAACTEKKIPVVFRLQEGYDHSYYFIATFIADHIRHHAKYLNA

binding: binds
B4: retinal dehydrogenase 1 (ALDH1A1) of mouse blood cell lysate (protein, UniProt P24549 1-501)
chain: MSSPAQPAVPAPLADLKIQHTKIFINNEWHNSVSGKKFPVLNPATEEVICHVEEGDKADVDKAVKAARQAFQIGSPWRTMDASERGRLLNKLADLMERDRLLLATMEALNGGKVFANAYLSDLGGCIKALKYCAGWADKIHGQTIPSDGDIFTYTRREPIGVCGQIIPWNFPMLMFIWKIGPALSCGNTVVVKPAEQTPLTALHLASLIKEAGFPPGVVNIVPGYGPTAGAAISSHMDVDKVAFTGSTQVGKLIKEAAGKSNLKRVTLELGGKSPCIVFADADLDIAVEFAHHGVFYHQGQCCVAASRIFVEESVYDEFVKRSVERAKKYVLGNPLTPGINQGPQIDKEQHDKILDLIESGKKEGAKLECGGGRWGNKGFFVQPTVFSNVTDEMRIAKEEIFGPVQQIMKFKSVDDVIKRANNTTYGLAAGLFTKDLDKAITVSSALQAGVVWVNCYMMLSAQCPFGGFKMSGNGRELGEHGLYEYTELKTVAMKISQKNS

From publication PMC10050189, “Alpha 2-macroglobulin acts as a clearance factor in the lysosomal degradation of extracellular misfolded proteins” (Scientific Reports, 2023)
